Results deposited as PubChem BioAssay AID1159578 (Peter MacCallum Cancer Centre, 2015)
Assay: 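Knock-downs that alter how fast lymphatic endothelial cells migrate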 (primary screen). Cell system: human lymphatic endothelial cells. Reagent: siRNA pool against human genes, 40 nM. Time to read-out: 48 h after transfection. Detection: 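High-content imaging of dye-stained cells in a scratch assay measures filled wound area and nuclei per well; duplicate means given as ratio to mock and robust z-score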. Scale: migration robust z-score: higher = faster migration into the scratch; nuclei per well: higher = more cells in the well. Call rule: 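Pools averaging fewer than 3300 nuclei are never called; remaining pools count as changed when migration robust z lies outside -2 to 2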. Meaning of the calls: active = migration changed; inactive = no migration change, or too few cells.
Shown is a random part of about 18,000 reagents tested. In the full data, about 1,030 (5.7%) were called active. 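Inactive calls also include pools with fewer than 3300 nuclei, whose migration was not assessed.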 Raw values vary from plate to plate and are shown uncorrected. A number with no mark means an inactive call. Further read-outs or replicates are left out here.

For STX19, what was measured?
migration robust z-score: 0.01; nuclei per well, duplicate mean: 5594

What is on record for DRC11?
migration robust z-score: 0.62; nuclei per well, duplicate mean: 5964

With GALNS, how do the results read?
migration robust z-score: -0.7; nuclei per well, duplicate mean: 5576

Which result is listed for ZKSCAN8?
migration robust z-score: -0.62; nuclei per well, duplicate mean: 5678

Which result is listed for YWHAG?
migration robust z-score: -2.54 (active); nuclei per well, duplicate mean: 3591

For PTBP3, how do the results read?
migration robust z-score: -0.91; nuclei per well, duplicate mean: 6432

How did the screen score ZNF705A?
migration robust z-score: -0.33; nuclei per well, duplicate mean: 6522

For TMEM182, what was measured?
migration robust z-score: 0.88; nuclei per well, duplicate mean: 6107

What is on record for SLC25A3?
migration robust z-score: -1.32; nuclei per well, duplicate mean: 5656

With ITGAL, what was measured?
migration robust z-score: 0.24; nuclei per well, duplicate mean: 5300

Which result is listed for CLDN17?
migration robust z-score: 1.75; nuclei per well, duplicate mean: 6599

With RPL21P44, what does the deposit list?
migration robust z-score: -0.38; nuclei per well, duplicate mean: 4048

For INPP5F, what does the deposit list?
migration robust z-score: -0.26; nuclei per well, duplicate mean: 5063

With OR51A7, what was measured?
migration robust z-score: 0.12; nuclei per well, duplicate mean: 4812

With TLCD5, how do the results read?
migration robust z-score: -1.48; nuclei per well, duplicate mean: 6062

For DTNBP1, what does the deposit list?
migration robust z-score: -1.13; nuclei per well, duplicate mean: 6591

With IKBKE, what was measured?
migration robust z-score: -2.77; nuclei per well, duplicate mean: 2856

What is on record for MCRIP2?
migration robust z-score: 0.26; nuclei per well, duplicate mean: 5854

How did the screen score PTGDS?
migration robust z-score: -2.18 (active); nuclei per well, duplicate mean: 4465

For IQCF3, what was measured?
migration robust z-score: 0.7; nuclei per well, duplicate mean: 6130

With RHOBTB3, what was measured?
migration robust z-score: 3.13 (active); nuclei per well, duplicate mean: 5012
